Results published in US20250049741A1, “COMPOSITION FOR PREVENTING OR TREATING ALZHEIMER'S DISEASE COMPRISING PHOSPHOLIPASE C ACTIVATOR AS AN ACTIVE INGREDIENT” (Korea University Research and Business Foundation, priority 2021, published 2025).

How the values were obtained:
[1] = tested on: hippocampal CA3-CA1 excitatory synapses; test: S-eCB mobilization induced spike timing-dependent potentiation (tLTP) protocol, EPSP slope; type: cell-based, Sprague-Dawley rats; details: DMSO-treated rat hippocampal slices; D-AP5 50 μM or AM251 3 μM
Experimental: Soluble AβO was prepared according to a previous study (BMC Biol. 2020; 18(1):7). Specifically, Aβ1-42 (Aβ) and a scrambled form of Aβ as a control peptide were purchased in powder form. Aβ and scrambled Aβ were dissolved for monomerization in 1,1,1,3,3,3-hexafluoro-2-propanol (HFIP, Sigma Aldrich, USA) at a final concentration of 1 mM, and the solution was incubated for 90 minutes. After the HFIP was evaporated, the remaining thin and clear film of Aβ or scrambled Aβ was dissolved in dimethyl sulfoxide (DMSO, Sigma Aldrich, USA) to prepare 5 mM Aβ or scrambled Aβ stocks, which were aliquoted and frozen at −20° C. Aβ or scrambled Aβ stocks were thawed and diluted to 100 μM in artificial cerebrospinal fluid (ACSF). Thereafter, Aβ or scrambled Aβ stocks were incubated for oligomerization for 18 hours. The final AβO or scrambled AβO stock solution was diluted to a final concentration of 200 nM in 31.2 ml of ACSF, and rat hippocampal slices were treated with the stock solution for 20 minutes in a recovery chamber before measurement of brain signals. In control experiments for normal brain conditions using a vehicle, rat hippocampal slices were treated with 0.004% DMSO in ACSF. […]

[2] = tested on: CA1 PCs in rat hippocampal slices; test: Ex vivo eCB / S-eCB mobilization protocol: eIPSC amplitudes by whole-cell voltage-clamp; type: cell-based, Sprague-Dawley rats; details: AM251 3 μM; DMSO-treated rat hippocampal slices
From the text: To test the acute effect of AβO on hippocampal S-eCB mobilization, hippocampal slices from Sprague-Dawley rats (SD, 2 to 3 weeks old, DaeHan Biolink, Co., Ltd., Korea) were used. Male and female rats were used in all in vitro experiments. To test the chronic effect of AβO on hippocampus-dependent memory impairments caused by amyloidosis, the 5XFAD mouse model (6 to 7 months old, #34840-JAX, Jackson Laboratory, USA), which is a mouse model of Alzheimer's disease that mimics AβO depositions, was used. C57BL/6 mice (6 to 7 months old, KOATECH, Korea) were used as wild type (WT) control mice for 5XFAD mice. Male 5XFAD and C57BL/6 mice were used for all in vivo behavioral experiments. The 5XFAD mouse genotypes were identified by polymerase chain reaction (PCR) using DNA extracted from the tails of the mice. […]
To quantify eCB mobilization, the changes in eCB mobilization-induced Schaffer collateral (SC) nerve bundle stimulation-evoked inhibitory postsynaptic current (eIPSC) amplitudes were measured in CA1 PCs through the whole-cell voltage-clamp technique. […] Electrical stimulation pulses of 200 to 400 μA amplitudes (20 to 40 μs) were generated using a constant current stimulator (model DS3, Digitimer Ltd., UK). eIPSCs were recorded in CA PCs every 1 second while maintaining the membrane potential at −70 mV.

With `Cc1c(C(=O)NN2CCCCC2)nn(-c2ccc(Cl)cc2Cl)c1-c1ccc(I)cc1` [AM251] the “mGluR5-mediated LTD in the presence of antagonist” value [1] was “induced in both the test and control pathways”, the “tLTP induction (EPSP slope, test pathway), effect of antagonist” value [1] was “completely blocked” and the “effect on suppression of eIPSC amplitudes by DHPG puff with 1 Hz neural spike trains (S-eCB mobilization)” value [2] was “completely blocked”.
